Results are given in words; binding and its absence hold for the method and conditions named.
Biological target: GST-Dom3 IP3R1 (GST fused to IP3R1 Domain 3, aa 923-1581) (mouse) (UniProt P11881)
Assay: condition: 30 µg peptide with 30 µg GST-fusion protein; pull-down; 30 µg GST-Dom3 IP3R1 with 30 µg BH4 peptide on glutathione-Sepharose 4B beads, 2 h at 4°C; Interaction Buffer 50 mM Tris-HCl, 300 mM NaCl, 1 mM EDTA, 1% NP-40, 0.5% sodium deoxycholate, 0.5% BSA, pH 7.0; washed 4 times with 150 mM NaCl and no BSA; SDS-PAGE with GelCode blue total protein stain, bands quantified with ImageJ; both purified

The chains behind the UniProt entries cited, without tags or fusion partners. Residues count along the entry.
UniProt P11881, residues 923-1581: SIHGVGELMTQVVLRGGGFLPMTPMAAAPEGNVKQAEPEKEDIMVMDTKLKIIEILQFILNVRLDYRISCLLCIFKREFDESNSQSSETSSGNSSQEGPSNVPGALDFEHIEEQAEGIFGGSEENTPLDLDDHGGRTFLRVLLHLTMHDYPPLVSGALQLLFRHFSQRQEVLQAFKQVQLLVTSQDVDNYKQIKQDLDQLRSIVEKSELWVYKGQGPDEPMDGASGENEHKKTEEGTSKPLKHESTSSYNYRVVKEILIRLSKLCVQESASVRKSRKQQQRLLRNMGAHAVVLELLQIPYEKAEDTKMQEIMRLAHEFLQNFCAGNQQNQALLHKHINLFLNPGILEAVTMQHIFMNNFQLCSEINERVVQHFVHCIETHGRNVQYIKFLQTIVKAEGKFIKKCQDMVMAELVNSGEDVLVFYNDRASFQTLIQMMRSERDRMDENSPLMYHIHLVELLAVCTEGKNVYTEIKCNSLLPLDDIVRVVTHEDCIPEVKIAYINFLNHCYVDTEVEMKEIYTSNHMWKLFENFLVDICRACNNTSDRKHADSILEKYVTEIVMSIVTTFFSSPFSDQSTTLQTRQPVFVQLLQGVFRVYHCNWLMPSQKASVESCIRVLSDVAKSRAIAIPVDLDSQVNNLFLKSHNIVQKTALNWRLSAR

RTGYDNREGGMKYIHYKLSQRGYEW [Bcl-2-BH4 IV/GG peptide] was tested, and the binding was “no binding”.

— PMC3795776, “Alpha-Helical Destabilization of the Bcl-2-BH4-Domain Peptide Abolishes Its Ability to Inhibit the IP3 Receptor” (PLoS ONE, 2013)
